Test results: US11000050B2 (priority 2015, dated 2021)
For at least one compound, name, drawing or mass did not settle the structure.

Test system: Salmonella enteritidis PT4
Parameters: species or system Ross 308 male broilers
Conditions: in vivo

COc1cc(CNC(=O)CCCCC#Cc2ccccc2)ccc1O [phenylcapsaicin]
two highest Salmonella values in caecal digesta (considered outliers): 1.3×10′ CFU/g
